Experimental findings from publication PMC7199855, “GRAF2, WDR44, and MICAL1 mediate Rab8/10/11–dependent export of E-cadherin, MMP14, and CFTR ΔF508” (The Journal of Cell Biology, 2020) are described below.

Chains of the proteins cited; added tags and fusions are not shown.
UniProt P61007: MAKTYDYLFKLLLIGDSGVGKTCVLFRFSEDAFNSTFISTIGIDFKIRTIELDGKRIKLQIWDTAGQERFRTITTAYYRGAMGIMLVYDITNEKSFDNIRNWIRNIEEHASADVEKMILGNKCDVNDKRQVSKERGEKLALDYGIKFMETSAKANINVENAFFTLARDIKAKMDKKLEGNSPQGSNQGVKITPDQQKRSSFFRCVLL
UniProt P61026: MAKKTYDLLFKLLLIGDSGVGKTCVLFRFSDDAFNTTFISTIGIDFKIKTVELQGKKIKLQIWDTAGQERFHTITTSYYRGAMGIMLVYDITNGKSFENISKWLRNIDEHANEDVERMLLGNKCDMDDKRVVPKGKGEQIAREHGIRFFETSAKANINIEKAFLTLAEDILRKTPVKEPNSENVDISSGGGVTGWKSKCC
UniProt Q92930: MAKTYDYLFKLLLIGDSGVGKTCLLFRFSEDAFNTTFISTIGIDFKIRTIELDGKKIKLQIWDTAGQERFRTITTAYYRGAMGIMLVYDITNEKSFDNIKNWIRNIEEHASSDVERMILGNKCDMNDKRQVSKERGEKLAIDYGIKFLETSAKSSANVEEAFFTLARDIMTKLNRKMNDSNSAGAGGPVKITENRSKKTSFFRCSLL
UniProt P62491: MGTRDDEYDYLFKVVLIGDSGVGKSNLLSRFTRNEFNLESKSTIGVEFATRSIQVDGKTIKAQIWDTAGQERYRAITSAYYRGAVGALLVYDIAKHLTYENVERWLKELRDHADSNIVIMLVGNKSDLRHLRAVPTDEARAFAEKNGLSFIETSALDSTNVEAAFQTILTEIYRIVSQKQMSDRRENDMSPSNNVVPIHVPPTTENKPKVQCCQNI

Experiment [1] has as its target T1, myc–MICAL1 G3W (human) (UniProt Q8TDZ2).
T1 sequence: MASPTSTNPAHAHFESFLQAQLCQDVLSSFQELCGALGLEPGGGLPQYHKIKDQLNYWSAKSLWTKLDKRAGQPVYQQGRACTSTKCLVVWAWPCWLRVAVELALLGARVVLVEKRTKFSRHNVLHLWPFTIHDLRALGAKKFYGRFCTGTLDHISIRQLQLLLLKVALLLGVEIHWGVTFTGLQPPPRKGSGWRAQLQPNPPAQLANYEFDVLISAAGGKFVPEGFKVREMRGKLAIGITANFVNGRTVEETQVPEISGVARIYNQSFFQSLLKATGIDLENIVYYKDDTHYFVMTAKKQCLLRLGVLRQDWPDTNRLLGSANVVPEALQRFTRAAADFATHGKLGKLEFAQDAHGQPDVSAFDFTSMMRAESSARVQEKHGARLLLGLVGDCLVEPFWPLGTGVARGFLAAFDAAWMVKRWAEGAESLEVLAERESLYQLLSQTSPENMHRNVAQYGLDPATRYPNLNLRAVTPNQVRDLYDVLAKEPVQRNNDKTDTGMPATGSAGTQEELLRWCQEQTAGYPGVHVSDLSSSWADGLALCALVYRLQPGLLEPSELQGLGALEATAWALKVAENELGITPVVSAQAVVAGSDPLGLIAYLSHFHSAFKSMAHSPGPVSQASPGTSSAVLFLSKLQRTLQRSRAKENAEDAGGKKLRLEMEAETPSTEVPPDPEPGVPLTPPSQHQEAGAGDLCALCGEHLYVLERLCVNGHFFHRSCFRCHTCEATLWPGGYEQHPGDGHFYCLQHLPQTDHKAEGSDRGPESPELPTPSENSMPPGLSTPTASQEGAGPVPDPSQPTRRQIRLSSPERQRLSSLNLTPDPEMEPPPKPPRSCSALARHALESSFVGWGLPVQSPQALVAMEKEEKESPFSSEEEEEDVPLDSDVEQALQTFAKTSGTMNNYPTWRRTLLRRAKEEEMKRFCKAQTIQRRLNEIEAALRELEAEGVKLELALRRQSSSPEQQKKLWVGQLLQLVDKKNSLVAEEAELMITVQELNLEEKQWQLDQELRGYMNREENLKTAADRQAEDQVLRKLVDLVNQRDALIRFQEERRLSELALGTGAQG
Briefly: co-IP; transfected 293T, IP with α-myc antibody and Protein G Sepharose; 20 mM Hepes pH 7.4, 150 mM NaCl, 2 mM EDTA, 1% IGEPAL CA-630; Western blot. A general note: A western blot detects proteins with antibodies after separation by electrophoresis.

Experiment [2] concerns the target T2, myc-MICAL1 (human) (UniProt Q8TDZ2).
T2 sequence: T1 sequence with W91G, W93G, W96G
The description is as above.

The target of experiment [3] is GFP-Rab8a (canine) (UniProt P61007). In words: co-IP; transfected 293T, IP with α-GFP and Protein G Sepharose; 20 mM Hepes pH 7.4, 150 mM NaCl, 2 mM EDTA, 1% IGEPAL CA-630; Western blot.
Experiment [4] deals with GFP-Rab10 (human) (UniProt P61026). Described as above.
Experiment [5] has as its target GFP-Rab8b (human) (UniProt Q92930). The description is as above.
Experiment [6] deals with GFP-Rab11a (human) (UniProt P62491). Described as above.
For experiment [7], the target named is T3, myc-MICAL1^tail (human) (UniProt Q8TDZ2).
T3 sequence: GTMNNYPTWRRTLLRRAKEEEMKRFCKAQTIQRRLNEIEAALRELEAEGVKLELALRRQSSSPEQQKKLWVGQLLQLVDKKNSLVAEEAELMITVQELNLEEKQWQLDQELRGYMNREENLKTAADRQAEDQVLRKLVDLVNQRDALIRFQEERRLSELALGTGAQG
In words: co-IP; transfected 293T, IP with α-myc–coated magnetic beads; 20 mM Hepes pH 7.4, 150 mM NaCl, 2 mM EDTA, 1% IGEPAL CA-630; Western blot.

Experiment [8] concerns the target T2, myc-MICAL1 (human). The experiment is described as above.
Experiment [9] deals with T4, myc-MICAL1^Pro (human) (UniProt Q8TDZ2).
T4 sequence: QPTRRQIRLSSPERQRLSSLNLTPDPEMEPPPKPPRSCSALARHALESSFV
The description is as above.

Positions count from the first letter of the chain named. No constants are given. Whether binding was seen depends on the method and setting. In cells and extracts the contact can be indirect. Some entries that bind do so weakly or less than the wild type. Where a sequence is shown, tags or fusion partners need not be part of it.

Regarding GFP-Rab10 (from UniProt P61026 1-200), the binding result in [1] and in experiment [2] was “binds” in each case.

B1: untagged MICAL1 (protein, UniProt Q8TDZ2 1-1067)
chain: T1 sequence with W91G, W93G, W96G
Take B1: the binding entry is “binds” in experiment [3], “binds” in experiment [4], “binds” in [5] and “no binding” in experiment [6].

B2: GRAF2-GFP (protein, UniProt A1A4S6 1-786)
chain: MGLQPLEFSDCYLDSPWFRERIRAHEAELERTNKFIKELIKDGKNLIAATKSLSVAQRKFAHSLRDFKFEFIGDAVTDDERCIDASLREFSNFLKNLEEQREIMALSVTETLIKPLEKFRKEQLGAVKEEKKKFDKETEKNYSLIDKHLNLSAKKKDSHLQEADIQVEQNRQHFYELSLEYVCKLQEIQERKKFEFVEPMLSFFQGMFTFYHQGHELAKDFNHYKMELQINIQNTRNRFEGTRSEVEELMNKIRQNPKDHKRASQFTAEGYLYVQEKRPAPFGSSWVKHYCMYRKAAKKFNMIPFEHRSGGKLGDGEVFFLKECTKRHTDSIDRRFCFDIEAADRPGVSLTMQAFSEEERKQWLEALGGKEALSHSFNTAIIPRPEGNAQLDKMGFTIIRKCISAVETRGINDQGLYRVVGVSSKVQRLLSMLMDVKTCNEVDLENSADWEVKTITSALKQYLRSLPEPLMTYELHGDFIVPAKSGSPESRVNAIHFLVHKLPEKNKEMLDILVKHLTNVSNHSKQNLMTVANLGVVFGPTLMRPQEETVAALMDLKFQNIVVEILIENHEKIFRTPPDTTFPEPTCLSASPPNAPPRQSKRQGQRTKRPVAVYNLCLELEDGDNPYPSKEDTPTSSLDSLSSPSPVTTAVPGPPGPDKNHLLADGGSFGDWASTIPGQTRSSMVQWLNPQSPTTTSSNSAVTPLSPGSSPFPFSPPATVADKPPESIRSRKARAVYPCEAEHSSELSFEIGAIFEDVQTSREPGWLEGTLNGKRGLIPQNYVKLL
As for B2, the binding result in experiment [1] is reported as “binds”; in experiment [2] it was “binds”; in [7], “no binding”; in experiment [8] it was “binds”; in experiment [9], “binds”.
